Experimental data: publication PMC7904954
No constants are given. Whether binding was seen depends on the method and setting. Binding seen in cells or lysates may run through a third protein. A result given as binding can be weak or reduced; the word gives no strength.

The chains behind the UniProt entries cited, without tags or fusion partners. Where a name states a change or a piece, a line headed by the entry shows the natural chain unless it says otherwise.
UniProt P02525: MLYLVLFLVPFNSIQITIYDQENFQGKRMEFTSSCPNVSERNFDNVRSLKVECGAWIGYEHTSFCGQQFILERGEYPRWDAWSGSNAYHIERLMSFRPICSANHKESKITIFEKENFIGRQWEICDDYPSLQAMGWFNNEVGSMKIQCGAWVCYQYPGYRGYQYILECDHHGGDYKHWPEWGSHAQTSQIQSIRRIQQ

Target: βA1-crystallin-mCherry (mouse) (UniProt P02525)
Test: co-IP; RFP-magnetic beads (Chromotek) on RIPA lysates of WT and Cryba1 KO mouse astrocytes transfected for 48 h with mCherry constructs; 2 h at 4 °C; washed in 10 mM Tris/Cl pH 7.5, 150 mM NaCl, 0.5 mM EDTA; western blot for PTP1B

binding: binds
B1: protein tyrosine phosphatase 1B (PTP1B), endogenous in mouse astrocytes (enzyme, UniProt P35821 1-432)
chain: MEMEKEFEEIDKAGNWAAIYQDIRHEASDFPCKVAKLPKNKNRNRYRDVSPFDHSRIKLHQEDNDYINASLIKMEEAQRSYILTQGPLPNTCGHFWEMVWEQKSRGVVMLNRIMEKGSLKCAQYWPQQEEKEMVFDDTGLKLTLISEDVKSYYTVRQLELENLTTKETREILHFHYTTWPDFGVPESPASFLNFLFKVRESGSLSLEHGPIVVHCSAGIGRSGTFCLADTCLLLMDKRKDPSSVDIKKVLLEMRRFRMGLIQTADQLRFSYLAVIEGAKFIMGDSSVQDQWKELSREDLDLPPEHVPPPPRPPKRTLEPHNGKCKELFSSHQWVSEETCGDEDSLAREEGRAQSSAMHSVSSMSPDTEVRRRMVGGGLQSAQASVPTEEELSSTEEEHKAHWPSHWKPFLVNVCMATLLATGAYLCYRVCFH
